Source: article PMC7862700
This is a selection; strong and weak results do not stand in their true shares. For some assays here: At the low end of the ranking, values are background and their order means little.

Key:
Experiment in all cases: DAPPL (digital affinity profiling via proximity ligation, sequencing)
Conditions in all cases: 10 mM Tris-HCl pH 7.5, 50 mM NaCl, 1 mM DTT, 4% glycerol, room temperature, 30 min; GST-TFs on glutathione beads, 16-mer random dsDNA library, 0.1% …; high values mean tight binding; double strand, one strand shown; scale: fold enrichment (6-mer frequency, TF over GST control)
ELK3 = molecular target: T1, ELK3 (UniProt P41970)
T1 sequence: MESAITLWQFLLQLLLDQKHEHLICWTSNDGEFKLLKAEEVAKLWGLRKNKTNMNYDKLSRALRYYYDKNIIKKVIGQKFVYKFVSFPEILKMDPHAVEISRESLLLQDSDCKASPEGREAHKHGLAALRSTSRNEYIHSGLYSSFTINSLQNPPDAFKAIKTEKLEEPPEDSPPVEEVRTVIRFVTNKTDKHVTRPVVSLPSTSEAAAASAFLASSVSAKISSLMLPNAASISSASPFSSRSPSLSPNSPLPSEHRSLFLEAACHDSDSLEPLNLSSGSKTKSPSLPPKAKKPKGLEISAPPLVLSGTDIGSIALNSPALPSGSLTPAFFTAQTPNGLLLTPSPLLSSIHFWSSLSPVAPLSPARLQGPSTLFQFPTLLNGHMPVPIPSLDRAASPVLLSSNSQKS

SPIC = molecular target: T2, SPIC (UniProt Q8N5J4)
T2 sequence: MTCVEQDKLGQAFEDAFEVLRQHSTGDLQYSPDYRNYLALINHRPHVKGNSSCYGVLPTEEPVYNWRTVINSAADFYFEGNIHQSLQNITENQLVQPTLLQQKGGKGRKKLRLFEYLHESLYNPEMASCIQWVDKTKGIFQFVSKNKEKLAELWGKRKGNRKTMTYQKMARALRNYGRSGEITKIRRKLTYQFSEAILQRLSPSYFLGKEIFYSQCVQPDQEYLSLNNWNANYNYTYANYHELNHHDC

ELK1 = molecular target: T3, ELK1 (UniProt P19419)
T3 sequence: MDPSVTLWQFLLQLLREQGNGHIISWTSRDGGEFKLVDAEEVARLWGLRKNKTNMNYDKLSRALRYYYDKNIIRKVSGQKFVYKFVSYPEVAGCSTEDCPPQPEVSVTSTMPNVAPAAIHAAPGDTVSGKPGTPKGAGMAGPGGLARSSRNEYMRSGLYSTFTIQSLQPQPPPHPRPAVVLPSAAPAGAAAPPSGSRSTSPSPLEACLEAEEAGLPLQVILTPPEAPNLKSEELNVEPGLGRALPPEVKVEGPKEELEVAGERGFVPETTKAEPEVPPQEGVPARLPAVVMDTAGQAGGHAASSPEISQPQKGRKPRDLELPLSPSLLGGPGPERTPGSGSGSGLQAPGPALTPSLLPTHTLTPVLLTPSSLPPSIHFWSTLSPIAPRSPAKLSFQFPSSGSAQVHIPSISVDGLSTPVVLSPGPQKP

Sequence: CCCACC
- binding signal (ELK3): 1.16
- binding signal (SPIC): 1.21

Sequence: CGATGC
- binding signal (ELK3): 0.934
- binding signal (SPIC): 0.985

Sequence: TGTTCC
- binding signal (ELK3): 1.5
- binding signal (SPIC): 2

Sequence: CCTTCC
- binding signal (ELK3): 2.47
- binding signal (SPIC): 2.36

Sequence: GGATCT
- binding signal (ELK3): 0.964
- binding signal (SPIC): 1.01

Sequence: GGTACA
- binding signal (ELK3): 0.899
- binding signal (SPIC): 0.979

Sequence: ACACGG
- binding signal (ELK3): 0.926
- binding signal (SPIC): 1.06

Sequence: AATTTG
- binding signal (ELK3): 1.12
- binding signal (SPIC): 1.41

Sequence: ACCCTT
- binding signal (ELK3): 1.2
- binding signal (SPIC): 1.02

Sequence: AAAAAC
- binding signal (ELK3): 1.31
- binding signal (SPIC): 1.27

Sequence: CCCCCT
- binding signal (ELK3): 1.32
- binding signal (SPIC): 1.31

Sequence: TCACCT
- binding signal (ELK3): 1.22
- binding signal (SPIC): 1.31

Sequence: TGACTA
- binding signal (ELK3): 1.14
- binding signal (SPIC): 0.936

Sequence: TTCACA
- binding signal (ELK3): 1.26
- binding signal (SPIC): 1.08

Sequence: CCCGTC
- binding signal (ELK3): 0.935
- binding signal (SPIC): 0.958

Sequence: TCGATG
- binding signal (ELK3): 0.956
- binding signal (SPIC): 0.995

Sequence: CTCAAG
- binding signal (ELK3): 1.32
- binding signal (SPIC): 1.1

Sequence: CCAAAT
- binding signal (ELK3): 0.995
- binding signal (SPIC): 0.865

Sequence: ATGCCA
- binding signal (ELK3): 0.989
- binding signal (SPIC): 0.863

Sequence: TTTGGG
- binding signal (ELK3): 1.29
- binding signal (SPIC): 1.16

Sequence: ACACTA
- binding signal (ELK3): 1.1
- binding signal (SPIC): 1.14

Sequence: CGTCTT
- binding signal (ELK3): 1.28
- binding signal (SPIC): 1.38

Sequence: CCGGTG
- binding signal (ELK3): 1.08
- binding signal (SPIC): 0.928

Sequence: TTTCCG
- binding signal (ELK3): 4.01
- binding signal (SPIC): 3.86

Sequence: GGTCTA
- binding signal (ELK3): 1.24
- binding signal (SPIC): 1.09

Sequence: GCCGGA
- binding signal (ELK3): 1.11
- binding signal (SPIC): 0.879

Sequence: GGCTAC
- binding signal (ELK3): 1.19
- binding signal (SPIC): 0.933

Sequence: GGTGTT
- binding signal (ELK3): 0.979
- binding signal (SPIC): 1.09

Sequence: ACACCC
- binding signal (ELK3): 1.08
- binding signal (SPIC): 1.19

Sequence: AGCCTA
- binding signal (ELK1): 1.05

Sequence: TATATT
- binding signal (ELK1): 1.33

Sequence: CCGGTT
- binding signal (ELK1): 2.1

Sequence: TCACTC
- binding signal (ELK1): 1.19

Sequence: TGACGC
- binding signal (ELK1): 1.22

Sequence: GACTCC
- binding signal (ELK1): 1.23

Sequence: ACCTTC
- binding signal (ELK1): 1.94

Sequence: ATTGGG
- binding signal (ELK1): 1.24

Sequence: GTTTAT
- binding signal (ELK1): 1.02

Sequence: GGTACT
- binding signal (ELK1): 1.21

Sequence: ACCTTA
- binding signal (ELK1): 1.24

Sequence: GCTATC
- binding signal (ELK3): 1.12
- binding signal (SPIC): 0.957
